Results taken from the supplement of paper PMC4635364.
Where a name gives a salt, the structure may show the parent alone. Some of the results follow. Repeats in this data set agree poorly, so a single value says little.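 Cells: ReNCell VM human fetal ventral-midbrain neural progenitors, differentiated mitogen-free. Blinded raters compared doublecortin-stained (early neurons) or tyrosine hydroxylase-stained (dopaminergic neurons) images with untreated wells, where 0 means no change. After repeats and both raters were averaged, compounds scoring 2 or above became hits for retesting.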 Where a SMILES comes first, the peptide text is derived from it. [ ]: non-standard residue; d: D form. pGlu = O=C1CC[C@@H](C(=O)O)N1; Thz = O=C(O)[C@@H]1CSCN1

test system: ReNCell VM; assay: neuronal differentiation score (DCX+ cell fraction vs untreated, manual image score) (score (-3 to 3)); higher = more neuronal differentiation; conditions: library: LOPAC; 2 uM; 2 weeks

Neuronal differentiation score, inactive:
OCC1OC(n2cnc3c(NC4CCCCC4)ncnc32)C(O)C1O (stereo not drawn) [N6-Cyclohexyladenosine] -3, N=C(NC(=O)c1nc(Cl)c(N)nc1N)Nc1ccccc1 [Phenamil methanesulfonate] -3, O=C(O)[C@H]1C[C@H](C(=O)O)N1 (relative stereo) [trans-Azetidine-2,4-dicarboxylic acid] 0, C[N+](C)(C)CCCCCC[N+](C)(C)C [Hexamethonium dichloride] 0, NC(Cc1cccc(-c2ccccc2CP(=O)(O)O)c1)C(=O)O (stereo not drawn) [Phenylbenzene-omega-phosphono-alpha-amino acid] 0

same assay, conditions: library: Prestwick; 2 uM; 2 weeks

Neuronal differentiation score, inactive:
CC(C(=O)O)c1ccc2c(c1)[nH]c1ccc(Cl)cc12 (stereo not drawn) [Carprofen] 0, CC(=O)N[C@@H](CS)C(=O)O [Acetylcysteine] 0, COc1ccccc1Oc1c(NS(=O)(=O)c2ccc(C(C)(C)C)cc2)nc(-c2ncccn2)nc1OCCO [Bosentan] 0, C=C(NC(=O)C(=C)NC(=O)c1csc(C2=N[C@@H]3c4csc(n4)[C@H]4NC(=O)c5csc(n5)[C@H]([C@](C)(O)[C@@H](C)O)NC(=O)[C@H]5CSC(=N5)/C(=C/C)NC(=O)[C@H]([C@@H](C)O)NC(=O)c5csc(n5)[C@]3(CC2)NC(=O)[C@H](C)NC(=O)C(=C)NC(=O)[C@H](C)NC(=O)[C@H]([C@@H](C)CC)N[C@@H]2C=Cc3c([C@H](C)O)cc(nc3[C@H]2O)C(=O)O[C@@H]4C)n1)C(N)=O [Thiostrepton] 0, CNCCC=C1c2ccccc2C=Cc2ccccc21 [Norcyclobenzaprine] 0

same assay, conditions: library: Spectrum; 2 uM; 2 weeks

Neuronal differentiation score, inactive:
CC(C)(C)NC[C@H](O)COc1nsnc1N1CCOCC1 0, CN1C(CCl)Nc2cc(Cl)c(S(N)(=O)=O)cc2S1(=O)=O (stereo not drawn) 0, COc1ccc(-c2oc3c(CC=C(C)C)c(O[C@@H]4O[C@H](CO)[C@@H](O)[C@H](O)[C@H]4O)cc(O)c3c(=O)c2O[C@@H]2O[C@@H](C)[C@H](O)[C@@H](O)[C@H]2O)cc1 0, O=C(Nc1ccc(C(=O)O)c(O)c1)c1ccccc1 0, CCC(=O)O[C@H](CC(=O)O)C[N+](C)(C)C 0, CC(=O)Oc1ccc(C(c2ccc(OC(C)=O)cc2)c2ccccn2)cc1 0, C[C@H]1[C@@H](O)O[C@@H]2O[C@@]3(C)CC[C@H]4[C@H](C)CC[C@@H]1[C@@]24OO3 0, NCCCC[C@H](N[C@@H](CCc1ccccc1)C(=O)O)C(=O)N1CCC[C@H]1C(=O)O 0, O=C1OC(=O)[C@H]2[C@@H]1[C@@H]1CC[C@H]2O1 0, C[C@]12CC[C@@H]3c4ccc(O)cc4CC[C@H]3[C@@H]1CCC2=O 0, COc1cc(NS(=O)(=O)c2ccc(N)cc2)ncn1 0, O=C1CC[C@@H](C(=O)N2CSC[C@H]2C(=O)O)N1 ([pGlu]-[Thz]-OH) 0, CCCCCCCCCCCCCCCC[N+](C)(C)CCN(Cc1ccc(OC)cc1)c1ncccn1 0, Nc1ncn([C@@H]2O[C@H](CO)[C@@H](O)[C@H]2O)c(=O)n1 0, CC1(C)C2CCC1(C)C(O)C2 (stereo not drawn) 0, C#C[C@]1(O)CC[C@H]2[C@@H]3CCC4=C(CCC(=O)C4)[C@H]3CC[C@@]21C 0, CN1CCC(=C2c3ccccc3Sc3ccccc32)CC1 0, CCN(CC)CCNC(=O)c1ccc(NC(C)=O)cc1 0, O=[N+]([O-])c1ccc(O)c2ncccc12 0, C#CCCCCCCCCCCCC(O)CC(O)COC(C)=O (stereo not drawn) 0, Cn1cnc([N+](=O)[O-])c1Sc1ncnc2[nH]cnc12 0, C[n+]1cc2c3c(ccc2c2ccc4cc5c(cc4c21)OCO5)OCO3 0, CCCCC1=NC2(CCCC2)C(=O)N1Cc1ccc(-c2ccccc2-c2nnn[nH]2)cc1 0, O=C1CCc2cc(OCCCCc3nnnn3C3CCCCC3)ccc2N1 0

same assay, conditions: library: Tocriscreen; 2 uM; 2 weeks

Neuronal differentiation score, inactive:
Cc1ccc(/C=N/NC(=O)c2ccccc2Oc2ccccc2)o1 0, O=c1[nH]ccc2c(S(=O)(=O)N3CCCNCC3)cccc12 [HA 1100 hydrochloride] 0, C/C(=N\NC(=O)C1C(=O)NCC1c1ccccc1)c1cccc(Br)c1 (stereo not drawn) 0, COc1cc2ncnc(Nc3ccc(Oc4ccccc4)cc3)c2cc1OC 0

test system: ReNCell VM; assay: dopaminergic neuron differentiation score (TH+ cell fraction vs untreated, manual image score) (score (0 to 3)); higher = more TH+ dopaminergic neuron differentiation; conditions: library: LOPAC; 2 uM; 4 weeks; BDNF 10 ng/ml + GDNF 10 ng/ml

Dopaminergic neuron differentiation score, inactive:
OCC1OC(n2cnc3c(NC4CCCCC4)ncnc32)C(O)C1O (stereo not drawn) [N6-Cyclohexyladenosine] 0, N=C(NC(=O)c1nc(Cl)c(N)nc1N)Nc1ccccc1 [Phenamil methanesulfonate] 0, O=C(O)[C@H]1C[C@H](C(=O)O)N1 (relative stereo) [trans-Azetidine-2,4-dicarboxylic acid] 0, C[N+](C)(C)CCCCCC[N+](C)(C)C [Hexamethonium dichloride] 0, NC(Cc1cccc(-c2ccccc2CP(=O)(O)O)c1)C(=O)O (stereo not drawn) [Phenylbenzene-omega-phosphono-alpha-amino acid] 0
